Data reported in paper PMC3582556.

Molecular target: T1, cYFP-VirF (Agrobacterium) (UniProt P15597)
T1 sequence: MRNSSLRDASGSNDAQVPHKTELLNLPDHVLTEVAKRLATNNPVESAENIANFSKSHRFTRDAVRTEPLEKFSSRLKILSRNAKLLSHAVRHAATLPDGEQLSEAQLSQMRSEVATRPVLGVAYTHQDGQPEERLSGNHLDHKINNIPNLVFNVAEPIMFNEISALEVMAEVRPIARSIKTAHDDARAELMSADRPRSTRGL
Assay: split reporter; BiFC with nYFP and cYFP fusions; construct pairs mixed 1:1 (w/w), microbombarded into N. benthamiana leaves, expressed 36-48 h at 22-24 C, confocal microscopy

Substance	binding
AtGnTL1-91N-nYFP (Arabidopsis thaliana) (domain or fragment)	no binding
nYFP-tagged AtGnTL (full-length) (Arabidopsis thaliana)	no binding

These are yes or no findings as the source states them, for the method shown. In cells and extracts the contact can be indirect. Tags and fused reporters may be left off the sequences shown.
